According to US4048299A, “Anticaries confectionaries and oral health products” (William Wrigley, Jr. Co., priority 1970, dated 1977):
For at least one compound, name, drawing or mass did not settle the structure.

How the values were obtained:
[1] = In vivo caries evaluation, Osborne-Mendel strain 2 rat; design: species or system rat (Osborne-Mendel strain 2); settings: Table I; 1 percent in diet, 91 days
From the text: Standard laboratory techniques were used to complie the data presented. In each case the aldehyde was incorporated into each specimen's food in a one percent, by weight, quantity, over a period of several weeks. In all cases, caries reduction was noted.
The aldehydes tested in vivo were pyruvaldehyde, d,1-glyceraldehyde, crystalline dimer, glycolaldehyde, octanaldehyde, nonanaldehyde, decanaldehyde, undecylenic aldehyde, and lauric aldehyde. The polyaldehydes tested were dialdehyde starch, dialdehyde starch 50 percent oxidized, dialdehyde starch 90 percent oxidized, and dialdehyde galactomannan gum.
^(a) Agents were incorporated in the diet at a 1 percent level.

oral microorganisms = test: Comparison of activity against oral microorganisms in vitro; settings: Table VIII; key given for acid-production (L4) and growth inhibition (L5)

Row | Structure (SMILES) | Evaluated Caries Reduction [1] | Activity against oral microorganisms (degree of inhibition) (oral microorganisms)
1 | OCC1OC(O)C(CO)OC1O (centres unmarked) [Glyceraldehyde, crystalline dimer] | ++ (approximate degree of caries reduction: ++ 50 percent) | –
2 | OC1COC(O)CO1 (centres unmarked) [Glycolaldehyde, dimer] | – | ++++ (For Acid-Production Inhibition, percent: 99 to 100)
